The target in this test is T1, Flag-FBXO31 (UniProt Q5XUX0).
T1 sequence: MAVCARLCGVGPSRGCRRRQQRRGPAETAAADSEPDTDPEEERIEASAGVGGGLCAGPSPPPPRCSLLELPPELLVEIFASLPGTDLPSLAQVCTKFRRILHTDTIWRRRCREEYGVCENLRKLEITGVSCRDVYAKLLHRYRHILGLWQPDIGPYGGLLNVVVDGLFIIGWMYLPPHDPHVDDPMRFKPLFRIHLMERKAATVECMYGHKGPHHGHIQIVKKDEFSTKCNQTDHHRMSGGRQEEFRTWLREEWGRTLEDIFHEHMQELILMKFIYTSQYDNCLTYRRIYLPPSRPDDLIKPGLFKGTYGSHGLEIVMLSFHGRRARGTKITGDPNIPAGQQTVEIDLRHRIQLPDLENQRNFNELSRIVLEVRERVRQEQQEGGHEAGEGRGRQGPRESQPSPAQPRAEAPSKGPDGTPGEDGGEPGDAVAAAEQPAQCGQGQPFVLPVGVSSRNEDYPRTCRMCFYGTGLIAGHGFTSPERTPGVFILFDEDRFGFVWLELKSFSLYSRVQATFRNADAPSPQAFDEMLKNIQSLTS
As to the kind of experiment: co-IP; transfected cells (293T, Panc-1, PaTu-8988, SW1990) treated with 10 μM MG132 for 6 h; NP40 lysate; HA or Flag magnetic beads; washed 3 times with TBST; western blotting. For orientation: In western blotting, separated proteins are transferred to a membrane and probed.

Results are given in words; binding and its absence hold for the method and conditions named. In cells and extracts the contact can be indirect. Some binding calls cover weakened binding; strength is not graded here. Sequences can lack the tags named with a protein.

B1: SIRT2 (protein, UniProt Q8IXJ6 1-389)
chain: MAEPDPSHPLETQAGKVQEAQDSDSDSEGGAAGGEADMDFLRNLFSQTLSLGSQKERLLDELTLEGVARYMQSERCRRVICLVGAGISTSAGIPDFRSPSTGLYDNLEKYHLPYPEAIFEISYFKKHPEPFFALAKELYPGQFKPTICHYFMRLLKDKGLLLRCYTQNIDTLERIAGLEQEDLVEAHGTFYTSHCVSASCRHEYPLSWMKEKIFSEVTPKCEDCQSLVKPDIVFFGESLPARFFSCMQSDFLKVDLLLVMGTSLQVQPFASLISKAPLSTPRLLINKEKAGQSDPFLGMIMGLGGGMDFDSKKAYRDVAWLGECDQGCLALAELLGWKKELEDLVRREHASIDAQSGAGVPNPSTSASPKKSPPPAKDEARTTEREKPQ
For B1, the binding result is reported as “binds”.

For the origin of these results see paper PMC10786907.
